# Laboratory results published in PubChem BioAssay AID445 (National Center for Advancing Translational Sciences (NCATS), 2006).
# Some of the results follow. Shown are side measurements of this screen, not its main read-out; they come without a call. Most of these compounds were active or inconclusive in the main read-out, so they are no random draw. Potencies come from curve fits of mixed quality, noted in brackets.
# Assay: IkB Signaling
# Conditions: ABC-DLBCL IkBa-CBG/CBR dual luciferase ratio (green luciferase fused to IkBa over red control in OCI-Ly3 lymphoma cells), 4 h
# In short: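 In this assay, an IκBα–CBG68 fusion accumulates when IKK-driven degradation is blocked; native CBR normalizes for cell number. OCI-Ly3 cells were treated 4 h with compound and doxycycline, then green and red light read after Chroma-Glo addition.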
# [1] = measured here: control luc red channel unless noted
smiles,measurement,setting,value
Cc1ccc(Cn2ccc(NC(=O)c3c(-c4ccccc4Cl)noc3C)n2)cc1,AC50,[1],"25.1 µM [falling, partial curve]"
COc1cc(C(=O)NCC(c2ccc(Cl)cc2)N2CCOCC2)cc(OC)c1OC (configuration not stated),AC50,[1],"15.8 µM [falling, partial curve]"
COc1ccc(NC(=O)Nc2ccc(C)cc2OC(F)F)cc1OC,AC50,[1],"12.6 µM [falling, partial curve]"
O=C(Cn1c(=O)nc(-c2ccccc2)c2ccccc21)NCc1ccccc1Cl,AC50,[1],"31.6 µM [falling, single point]"
COc1cc(NC(=O)CCn2nc(C)c(S(=O)(=O)N3CCCCC3)c2C)cc(OC)c1OC,AC50,[1],"39.8 µM [falling, single point]"
CCCC(=O)N1CCN(c2ccc(NC(=O)c3cc4ccccc4o3)cc2Cl)CC1,AC50,[1],"3.16 µM [falling, full curve]"
c1ccc2c(c1)CCN(c1nc3cc4c(cc3s1)OCCO4)C2,AC50,[1],"12.6 µM [falling, partial curve]"
COc1ccc(Cl)cc1NC(=O)c1c(NCc2cccnc2)sc2c1CCC(C)C2 (configuration not stated),AC50,[1],"10 µM [falling, partial curve]"
Cc1ccc(Cl)cc1NC(=O)CCCn1c(=O)c2cccn2c2cccnc21,AC50,[1],"31.6 µM [falling, single point]"
COc1ccccc1NC(=O)C1=C(C)Nc2c(C(=O)Nc3cccc(C)c3)cnn2C1c1ccccc1Cl (configuration not stated),AC50,[1],"10 µM [falling, partial curve]"
CCN1CCN(C(c2ccc(SC)cc2)c2c(O)cc(C)n(CCOC)c2=O)CC1 (configuration not stated),AC50,[1],"12.6 µM [falling, partial curve]"
COc1ccc(CNC(=O)CS(=O)Cc2nc(-c3cccc(C)c3)oc2C)cc1 (configuration not stated),AC50,[1],"31.6 µM [falling, single point]"
COc1cc(CNCCSc2nnnn2C)cc(Cl)c1OCc1ccccc1,AC50,[1],"15.8 µM [falling, single point]"
COc1cccc(NC(=O)Nc2nnc(N3CCCCC3C)s2)c1 (configuration not stated),AC50,[1],"12.6 µM [falling, partial curve]"
CCCCN(CC)CCNC(=O)c1cc2c(=O)n(CC)c3ccccc3c2s1,AC50,[1],"5.01 µM [falling, partial curve]"
CC(C)(Oc1ccc(Br)cc1)C(=O)Nc1cc(-c2nc3ccccc3[nH]2)ccc1Cl,AC50,[1],"12.6 µM [falling, partial curve]"
O=C(CN1N=C(c2ccc(Cl)cc2)CCC1=O)NCCc1ccccc1,AC50,[1],"12.6 µM [falling, partial curve, poor fit]"
CCc1c(C)nc2nncn2c1NCc1ccc(Cl)cc1,AC50,[1],"12.6 µM [falling, partial curve]"
CCOc1ccc(NC(=O)c2oc3ccccc3c2NC(=O)c2ccc(OC)cc2OC)cc1,AC50,[1],"39.8 µM [falling, single point]"
CCCn1c(NC(=O)c2cccc(S(=O)(=O)N3CCCC3)c2)nc2ccccc21,AC50,[1],"3.16 µM [falling, full curve]"
O=C(c1cccs1)N(Cc1nc2sc3c(c2c(=O)[nH]1)CCCC3)C1CCCC1,AC50,[1],"25.1 µM [falling, partial curve]"
COc1ccccc1N1C(=O)N(CC(=O)C(C)(C)C)c2ccccc2S1(=O)=O,AC50,[1],"2.51 µM [rising, partial curve]"
O=C(NCc1cccnc1)C1CCCN(S(=O)(=O)c2ccc(Br)cc2)C1 (configuration not stated),AC50,[1],"20 µM [falling, partial curve]"
CCCCn1c(CN2CCOCC2)nc2c1c(=O)n(C)c(=O)n2C,AC50,measured here: IkB-luc green channel,"12.6 µM [rising, partial curve]"
same,AC50,measured here: control luc red channel,"2.51 µM [falling, full curve]"
O=C1CN(C(=O)COc2ccc(Cl)cc2Cl)C(c2ccccc2)c2cc(F)ccc2N1 (configuration not stated),AC50,[1],"10 µM [falling, partial curve]"
CCC(=O)Nc1cccc(NC(=O)CSc2nnnn2Cc2ccccc2)c1,AC50,[1],"25.1 µM [falling, partial curve]"
CCOc1ccc(CCNC(=O)c2nn(C)c3c2CSc2ccccc2-3)cc1,AC50,[1],"25.1 µM [falling, single point]"
Cc1cccc(C(=O)NNc2ncnc3c2cnn3-c2ccc(C)cc2C)c1,AC50,[1],"15.8 µM [falling, single point]"
CCOc1ccccc1CNC(=O)CCCn1ccc2cc(S(=O)(=O)N3CCCC3)ccc21,AC50,[1],"20 µM [falling, partial curve]"
Cc1ccc(Cn2cnc3nc4c(cc3c2=O)CC(C)CC4)cc1 (configuration not stated),AC50,[1],"0.01 µM [falling, full curve, poor fit]"
COc1cccc(C(=O)Nc2nnc(S(=O)(=O)N3CCCC3)s2)c1,AC50,[1],"25.1 µM [falling, single point]"

# 2 records picked at random from those above, as already listed:
smiles,measurement,setting,value
O=C(c1cccs1)N(Cc1nc2sc3c(c2c(=O)[nH]1)CCCC3)C1CCCC1,AC50,[1],"25.1 µM [falling, partial curve]"
CCOc1ccc(CCNC(=O)c2nn(C)c3c2CSc2ccccc2-3)cc1,AC50,[1],"25.1 µM [falling, single point]"
